Test results: patent US20190309055A1 (NORDIC BIOSCIENCE A S, published 2019)
No constants are given. Whether binding was seen depends on the method and setting. Some results given as binding are weak or reduced against the parent protein; the word gives no strength.

Amino acid sequences for entries named in this document (tags omitted). Residues count along the entry.
UniProt P12111, residues 3101-3177: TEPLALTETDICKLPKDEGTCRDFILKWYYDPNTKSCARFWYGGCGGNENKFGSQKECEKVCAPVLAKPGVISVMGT

Tests used:
[1] = target: native C-terminal fragment of the collagen type VI α3 chain in human serum and human amniotic fluid (around 10 kD bands) (human) (UniProt P12111); assay: competitive ELISA and western blot
[2] = target: native C-terminal fragment of the collagen type VI α3 chain in human serum and human amniotic fluid (around 10 kD bands) (human) (UniProt P12111); assay: competitive ELISA and western blot on human serum pool and amniotic fluid pool

B1: monoclonal antibody 10A3 (antibody, mouse IgG1, kappa, V domains shown)
VH: EVQLQQSGPVMVKPGTSVKTSCKASGYTFTDFNMNWVKQSHGKSLEWIGAINPHNGATSYNQKFSGKATLTVDKSSSTAYMELNSLTSDDSAVYYCARWGNGKNSWGQGTTLTVSS
VL: DVVMTQTPLSLPVNLGDQASISCRSSQRIVHSNGITFLEWYLQKPGQSPKLLIYRVSNRFSGVPDRFSGSGSGTDFTLKISRVEAEDLGLYYCFQGSHVPLTFGAGTRLELKR
notes: Mouse IgG1/kappa from hybridoma; also called the chosen antibody; HRP conjugated monoclonal antibody 10A3
[1]
  binding: binds
[2]
  binding: binds
